Read-outs that look alike come from different tables or passages of the source.
Conditions: rat, in vivo
Protocol: Twelve male Wistar Han rats were divided into 4 groups, n=3 per group.
Dose solutions were prepared freshly on the day of study prior to dosing.
The animals were weighed immediately prior to dosing and the dose volume was calculated individually based the obtained body weight and the nominal dose volume. […] The test articles were administered either orally by gavage, or intraperitoneally by injection. The nominal dose volume was 10 mL/kg for both compounds and both routes.
Cage side observation was performed before and after dosing as well as at each scheduled sample collection. The observation included appearance, posture, behavior, morbidity and mortality. Abnormal findings, if any, were recorded in the study notebook and communicated with study director, veterinarian, and Supernus if necessary.
Approximately 100 μL blood was collected at each scheduled time point from jugular veins. The actual sample collection time was within 1 min. of the nominal time for collections prior to or at 1 hour, and within 5% of the nominal time for collections post 1 hour.
The blood samples were placed in pre-labeled micro-centrifuge tubes containing K2EDTA as anticoagulant and kept on ice, and then were processed to plasma within 30 minutes of collection by centrifugation at 4° C., 3000 g for 5 minutes, and then stored at −70±10° C. until analysis by LC-MS/MS.
Plasma concentrations below the LLOQ prior to Tmax were set to zero, and those after Tmax were excluded from PK calculation. The nominal dose and the nominal sample collection time were used for the calculation. The values of plasma concentrations and PK parameters are reported to three significant figures. The average values of each treatment group are presented as mean±SD.

COCCOC1(c2ccc(Cl)cc2)c2ccccc2C2=NCCN21 (centres unmarked) [Compound I-4]
AUC0-last of Compound B (ip): 196 30.1 ng·h/mL | Cmax of Compound B (ip): 11.3 ± 0.709 ng/mL | MRT0-last of Compound B (ip): 11.9 ± 0.993 h | Tmax of Compound B (ip): 6.67 ± 2.31 h | AUC0-last of Compound B (po): 264 ± 24.1 ng·h/mL | Cmax of Compound B (po): 17.9 ± 4.7 ng/mL | MRT0-last of Compound B (po): 11.9 ± 0.682 h | Tmax of Compound B (po): 8.00 ± 0 h

Clc1ccc(C2(OCC3OCCO3)c3ccccc3C3=NCCN32)cc1 (centres unmarked) [Compound I-19]
AUC0-last of Compound B (ip): 368 ± 243 ng·h/mL | Cmax of Compound B (ip): 28.4 ± 9.15 ng/mL | MRT0-last of Compound B (ip): 8.79 ± 3.82 h | AUC0-last of Compound B (po): 346 ± 29.7 ng·h/mL | Cmax of Compound B (po): 24.6 ± 7.67 ng/mL | MRT0-last of Compound B (po): 11.9 ± 1.81 h
